Source: PubChem BioAssay AID652272 (Drosophila RNAi Screening Center, 2013)
Aim: 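Finding fly genes that regulate Hedgehog signal transduction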 (primary screen). Cell system: Drosophila clone 8 (Cl8) cells. Reagent: long dsRNA against Drosophila genes. Detection: 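Firefly light from a Hedgehog-responsive ptc promoter reporter and Renilla reference light, both read on a plate reader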. Reading the numbers: firefly Hh reporter signal: higher = more ptc reporter light; Renilla reference signal: higher = more Renilla control light. Hit rule: 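Called a hit if the two-replicate mean z-score lies below -2 or above +3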. Calls: active = hit: reporter lowered or raised; inactive = not a hit.
The deposit covers about 21,000 reagents; shown is a random part of those with a known target gene and a result. Of all reagents, 503 (2.4%) are marked active. 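Raw plate light values, not normalised; calls rest on replicate z-scores that were not deposited; hits include reporter decreases as well as increases.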 The numbers tell different reagents against one gene apart. Names joined by + are all predicted targets of the reagent. The record does not give: the amount of reagent, the time to read-out.

gene knocked down	dsRNA no.	firefly Hh reporter signal, replicate 1	firefly Hh reporter signal, replicate 2	firefly Hh reporter signal, replicate 3	Renilla reference signal, replicate 1	Renilla reference signal, replicate 2	Outcome
Tom (Twin of m4)	1	85840	76666		3696	2699	inactive
lva (lava lamp)	1	1.31e5	1.42e5		2576	5017	inactive
Gr39b (Gustatory receptor 39b)	1	1.82e5	3.33e5		5152	15803	inactive
CG8320 + ATPCL	1	99915	60615		2688	5731	inactive
CG11889 + CG11891	1	5.35e5	69702		26084	2428	inactive
CG11889 + CG11891	2	4.22e5	78176		22858	2723	inactive
CG5521	1	81435	76912		2634	1985	inactive
SA2 (Stromalin 2)	1	71527	44668		2080	3003	inactive
CG43090	1	4.42e5	1.47e5		26812	3169	inactive
CG17169	1	57461	1.96e5		1784	11373	inactive
Tret1-2 (Trehalose transporter 1-2)	1	1.04e5	55798		2485	5126	inactive
Lrp4 (LDL receptor related protein 4)	1	94886	56016		2513	1136	inactive
CG46385	1	23896	19565		1450	1029	inactive
CG46385	2	67353	45098		1380	3201	inactive
IP3K1 (Inositol 1,4,5-triphosphate kinase 1)	1	1.21e5	77651		4567	3587	inactive
Trmt6 (tRNA methyltransferase 6 non-catalytic subunit)	1	1.17e5	63805		2032	6800	inactive
CG12851	1	79973	70923		1636	5492	inactive
caly (calypso)	1	1.06e5	89483		5056	4184	inactive
CG4073	1	79841	1.08e5		2369	3078	inactive
Inx3 (Innexin 3)	1	1.08e5	1.34e5		1387	3261	inactive
CG13599	1	4.65e5	86896		22884	2968	inactive
CG13676	1	49021	39515		3833	2064	inactive
CG9213	1	79200	50253		2036	1468	inactive
CG15865	1	76901	2.89e5		2907	11232	inactive
dsf (dissatisfaction)	1	1.48e5	38829		2904	2464	inactive
Map205 (Microtubule-associated protein 205)	1	28978	33568		1101	1596	inactive
Uba2 (Ubiquitin-like activating enzyme 2)	1	64428	88979		1609	6640	inactive
Pgls (6-phosphogluconolactonase)	1	79816	1.55e5		2230	5624	inactive
CG10068	1	95009	83809		3668	2962	inactive
cmpy (crimpy)	1	71213	91286		3024	2948	inactive
Or42b (Odorant receptor 42b)	1	86701	79435		1480	6139	inactive
CG8272	1	90722	73668		3530	3014	inactive
Arp1 (Actin-related protein 1)	1	71625	1.25e5		2600	3052	inactive
Daao1 (D-amino acid oxidase 1)	1	90389	46688		2200	4204	inactive

Just “Renilla reference signal, replicate 2” (3 entries from above):
Uba2 (Ubiquitin-like activating enzyme 2): 6640
Pgls (6-phosphogluconolactonase): 5624
CG10068: 2962

The list goes on:
gene knocked down	dsRNA no.	firefly Hh reporter signal, replicate 1	firefly Hh reporter signal, replicate 2	firefly Hh reporter signal, replicate 3	Renilla reference signal, replicate 1	Renilla reference signal, replicate 2	Outcome
CG1774	1	1.22e5	63456		3037	2539	inactive
capu (cappuccino)	1	5.67e5	1.46e5		29960	6371	inactive
capu (cappuccino)	2	5.26e5	1.34e5		32690	8485	active
capu (cappuccino)	3	1.34e5	57637		3344	5819	inactive
capu (cappuccino)	4	1.14e5	1.13e5		4268	5117	inactive
Prx6c (Peroxiredoxin 6c)	1	1.17e5	54541		3276	5120	inactive
MFS3 (Major Facilitator Superfamily Transporter 3)	1	1.51e5	98685		3242	2592	inactive
H15	1	87954	54242		1274	5156	inactive
mtTFB2 (mitochondrial transcription factor B2)	1	89750	1.44e5		3113	4018	inactive
CG6149	1	52016	35457	47612	2736	3209	inactive
mtsh (mitoshell)	1	84739	43159		2546	4656	inactive
CG15117	1	95681	63985		4074	2866	inactive
Cpr76Ba (Cuticular protein 76Ba)	1	1.09e5	67888		4274	2428	inactive
Elp3 (Elongator complex protein 3)	1	83332	45163		2026	5303	inactive
CG32237	1	80743	71075		8451	4740	inactive
CG32237	2	80896	72017		9681	5706	inactive
RpS26 (Ribosomal protein S26)	1	35863	14578		1746	1530	active
CG13170	1	78832	33781		2450	3275	inactive
mRpS16 (mitochondrial ribosomal protein S16)	1	97339	44167		2384	2226	inactive
CG5382	1	1.14e5	87398		4897	3472	inactive
CG15126	1	1.21e5	59377		3101	4422	inactive
lectin-33A	1	1.58e5	59810		3940	5113	inactive
CG15459	1	96273	4.32e5	2.85e5	2642	3026	inactive
